At least one structure is not confirmed: it was looked up by name or label, or the drawing left a doubt.
Experiments:
Format in all cases: in vivo
[1] = system: male Sprague-Dawley rats; experiment: Rat hindpaw withdrawal latency (HWL) to mechanical stimulation (Randall Selitto Test); conditions: intrathecal every 12 hrs: 8 μg morphine, 10 nmol nociceptin, or rotated every two days; for % Changes of HWL to Mechanical Stimulation 10 Minutes After Intrathecal Injection, Left: Left hindpaw; for % Changes of HWL to Mechanical Stimulation 10 Minutes After Intrathecal Injection, Right: Right hindpaw
[2] = system: male Sprague-Dawley rats; experiment: Rat HWL study, both types of stimulation: analgesia and development of complete tolerance
Experimental: Experiments were performed on male Sprague-Dawley rats having a weight of 200-250 g. The rats were housed in cages with free access to food and water. Room temperature was maintained at 24±2° C. and a 12 hr light/dark cycle was maintained. All experiments were conducted according to the guidelines of the Committee on Animal Research at the University of California at San Francisco. Every effort was made to minimize animal suffering.
A polyethylene catheter (Intramedic PE 10) was permanently implanted intrathecally with the inner tip at L3 to L5 in each animal. Rats displaying movement disorders following placement of the catheter were not used in the study. […]
In the morphine only group, 8 μg morphine HCl was injected every 12 hrs until complete tolerance developed and in the nociceptin only group, 10 nmol nociceptin was injected every 12 hrs until complete tolerance developed. These doses were chosen from previous studies that determined an equianalgesic dosing for these two drugs. […]
The rats were trained with the testing conditions for five days prior to the experiments to decrease the stress response caused by handling and measurements and to obtain baseline responses. The hindpaw withdrawal latency (HWL) was measured for both thermal and mechanical stimulation. […] The HWLs were measured 15 min after the second intrathecal injection on a daily basis. […]

[3] = system: male Sprague-Dawley rats; experiment: Rat hindpaw withdrawal latency (HWL) to thermal stimulation (hot-plate test, 52° C.); conditions: for % Changes of HWL to Thermal Stimulation 10 Minutes After Intrathecal Injection, Left: Left hindpaw; for % Changes of HWL to Thermal Stimulation 10 Minutes After Intrathecal Injection, Left / % Changes of HWL to Thermal Stimulation 10 Minutes After Intrathecal Injection, Right: intrathecal every 12 hrs: 8 μg morphine, 10 nmol nociceptin, or rotated every two days; for % Changes of HWL to Thermal Stimulation 10 Minutes After Intrathecal Injection, Right: Right hindpaw

Q: What does the source list for `CC(C)C[C@H](NC(=O)[C@H](CCCCN)NC(=O)[C@H](CCCN=C(N)N)NC(=O)[C@H](C)NC(=O)[C@H](CO)NC(=O)[C@H](CCCCN)NC(=O)[C@H](CCCN=C(N)N)NC(=O)[C@H](C)NC(=O)CNC(=O)[C@@H](NC(=O)[C@H](Cc1ccccc1)NC(=O)CNC(=O)CNC(=O)[C@@H](N)Cc1ccccc1)[C@@H](C)O)C(=O)N[C@@H](C)C(=O)N[C@@H](CC(N)=O)C(=O)N[C@@H](CCC(N)=O)C(=O)O` [Nociceptin, nociceptin]?
A: % Changes of HWL to Mechanical Stimulation 10 Minutes After Intrathecal Injection, Left ([1]; day 1): 69.90 ± 4.11%; % Changes of HWL to Mechanical Stimulation 10 Minutes After Intrathecal Injection, Left ([1]; day 2): 31.28 ± 5.03%; % Changes of HWL to Mechanical Stimulation 10 Minutes After Intrathecal Injection, Left ([1]; day 3): 10.59 ± 0.93%; % Changes of HWL to Mechanical Stimulation 10 Minutes After Intrathecal Injection, Left ([1]; day 4): −0.62 ± 1.45%; % Changes of HWL to Mechanical Stimulation 10 Minutes After Intrathecal Injection, Right ([1]; day 1): 61.26 ± 3.85%; % Changes of HWL to Mechanical Stimulation 10 Minutes After Intrathecal Injection, Right ([1]; day 2): 30.79 ± 6.58%; % Changes of HWL to Mechanical Stimulation 10 Minutes After Intrathecal Injection, Right ([1]; day 3): 10.08 ± 1.05%; % Changes of HWL to Mechanical Stimulation 10 Minutes After Intrathecal Injection, Right ([1]; day 4): −0.76 ± 2.32%; day by which total/complete tolerance exists ([2]; drug alone, intrathecal every 12 hrs, mechanical and thermal HWL): 4 days; tolerance developed ([2]; nociceptin alone group, by day 2): 50%; % Changes of HWL to Thermal Stimulation 10 Minutes After Intrathecal Injection, Left ([3]; day 1): 93.49 ± 3.77%; % Changes of HWL to Thermal Stimulation 10 Minutes After Intrathecal Injection, Left ([3]; day 2): 39.91 ± 3.66%; % Changes of HWL to Thermal Stimulation 10 Minutes After Intrathecal Injection, Left ([3]; day 3): 9.46 ± 2.31%; % Changes of HWL to Thermal Stimulation 10 Minutes After Intrathecal Injection, Left ([3]; day 4): −2.18 ± 2.07%; % Changes of HWL to Thermal Stimulation 10 Minutes After Intrathecal Injection, Right ([3]; day 1): 90.42 ± 2.65%; % Changes of HWL to Thermal Stimulation 10 Minutes After Intrathecal Injection, Right ([3]; day 2): 43.02 ± 2.12%; % Changes of HWL to Thermal Stimulation 10 Minutes After Intrathecal Injection, Right ([3]; day 3): 12.01 ± 1.48%; % Changes of HWL to Thermal Stimulation 10 Minutes After Intrathecal Injection, Right ([3]; day 4): −3.67 ± 1.61%; HWL increase using thermal stimulation ([3]; day 1, drug alone, intrathecal (morphine 8 μg or nociceptin 10 nmol every 12 hrs)): approximately 90%

Source: patent US7737118B2, “Rotational intrathecal analgesia” (Omeros Corporation, priority 2001, dated 2010)
